Literature values in patent publication US20190307734A1 (Zhuhai Beihai Biotech Co., Ltd., priority 2016, published 2019).
Read-outs that look alike come from different tables or passages of the source. The name of at least one read-out is uncertain.

SMILES: C[C@@H](OC[C@@]1(c2ccccc2)CC[C@]2(CCC(=O)N2)CN1)c1cc(C(F)(F)F)cc(C(F)(F)F)c1 [Rolapitant, rolapitant]
- apparent volume of distribution (Vd/F) (cancer patients, population pharmacokinetic analysis): 387 L
- apparent volume of distribution (Vd/F) (healthy subjects): 460 L
